From PubChem BioAssay record AID1963991 (NCATS, 2024).

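CellTiter-Glo luminescence measures how many UOK109 TFE3-RCC cells stay viable after two days of treatment. Each compound was run as a concentration series, and the potency comes from that titration. The number is the fitted AC50 for loss of viability; a lower value means a more potent compound. All of these compounds are filed inconclusive. An active call needs an area-under-curve z-score below -0.8 in all three TFE3-fusion lines, and an inactive call needs flat class-4 curves in all three.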

Values are in nM. Every entry below has the call inconclusive. These entries are mostly ones the record files as inconclusive; other results of the assay are not listed here. A potency from a partial, single-point or poor curve is only a rough figure. Some entries filed as inconclusive have a full curve. The first word of each remark tells which way the curve ran; it can be opposite to the aim of the assay. Activity scores are not listed here.

SMILES,tested on / at,fitted potency (nM),curve
CN1CCCC(n2nc(Cc3ccc(Cl)cc3)c3ccccc3c2=O)CC1 (configuration not stated),active = Z-AUC below -0.8 in all three lines,4176,"falling, partial curve"
COc1cc2c(NC3CCN(C(C)C)CC3)nc(C3CCCCC3)nc2cc1OCCCN1CCCC1,active = Z-AUC below -0.8 in all three lines,23484,"falling, partial curve"
O=c1[nH]c(=O)n([C@H]2C[C@@H](O)[C@@H](CO)O2)cc1C(F)(F)F,active = Z-AUC below -0.8 in all three lines,4686,-
CC12CC3CC(C)(C1)CC(N)(C3)C2,active = Z-AUC below -0.8 in all three lines,14817,"falling, partial curve"
CC(C)N[C@@H]1CCn2c(=O)[nH]c3cccc(c32)[C@@H]1O,-,3722,"falling, full curve"
C[C@]12CCC(=O)C=C1CC[C@@H]1[C@H]3CC[C@](C)(O)[C@@]3(C)CC[C@@H]12,-,30340,"falling, partial curve, poor fit"
Cc1ccc(C(C)(O)c2nc3ccccc3s2)c(C)c1 (configuration not stated),active = Z-AUC below -0.8 in all three lines,3722,"falling, full curve"
Cc1cc([C@@H](C)Nc2ccccc2C(=O)O)c2nc(N3CCOCC3)cc(=O)n2c1,active = Z-AUC below -0.8 in all three lines,6054,"falling, partial curve"
C1CCC(C(CC2CCCCN2)C2CCCCC2)CC1 (configuration not stated),active = Z-AUC below -0.8 in all three lines,23484,"falling, partial curve"
Cn1cc(-c2cnn3c(N)c(Br)c([C@H]4CCCNC4)nc23)cn1,active = Z-AUC below -0.8 in all three lines,2635,"falling, full curve"
N=c1c2c(-c3ccccc3)c(-c3ccccc3)n(Cc3ccccc3)c2ncn1C1CCC(O)CC1 (configuration not stated),-,935,"falling, full curve"
CC1(C)C(N(O)C(=O)Nc2ccc(Cl)cc2)N(c2ccc(Cl)cc2)C(=O)N1CC(=O)NN=CC=Cc1ccc([N+](=O)[O-])o1 (configuration not stated),active = Z-AUC below -0.8 in all three lines,23484,"falling, single point"
OCc1ccccc1O[C@@H]1O[C@H](CO)[C@H](O)[C@H](O)[C@H]1O,active = Z-AUC below -0.8 in all three lines,11770,-
Clc1cc(Cl)cc(CNc2ncncc2-c2ccc3c(c2)OCO3)c1,active = Z-AUC below -0.8 in all three lines,37221,"falling, single point"
CC(=Cc1csc(C)n1)[C@@H]1C[C@H]2O[C@]2(C)CCC[C@H](C)[C@@H](O)[C@@H](C)C(=O)C(C)(C)[C@@H](O)CC(=O)O1,-,46.86,"rising, full curve"
O=Nc1c(-c2c(O)[nH]c3cc(Br)ccc23)[nH]c2ccccc12,active = Z-AUC below -0.8 in all three lines,13206,"falling, partial curve"
CS(=O)(=O)c1ccc([C@@H](O)[C@@H](CO)NC(=O)C(Cl)Cl)cc1,active = Z-AUC below -0.8 in all three lines,29565,"falling, single point"
Cc1nn(Cc2ccccc2Cl)c(C)c1CN(C)CC(O)COc1ccc(Cl)cc1 (configuration not stated),active = Z-AUC below -0.8 in all three lines,18654,"falling, partial curve"
c1ccc2c(Cc3c[nH]c4ccccc34)c[nH]c2c1,active = Z-AUC below -0.8 in all three lines,4686,"falling, full curve"
N#Cc1c(C2CCNCC2)cc(-c2c(O)cccc2OCC2CC2)nc1N,active = Z-AUC below -0.8 in all three lines,18654,"falling, partial curve"
CN(C)c1ccc(C2Nc3ccc4ccccc4c3C3=C2C(=O)CC(C)(C)C3)cc1Br (configuration not stated),active = Z-AUC below -0.8 in all three lines,9350,"falling, partial curve"
Clc1ccc(Nc2nnc(Cc3ccncc3)c3ccccc23)cc1,active = Z-AUC below -0.8 in all three lines,14817,-
O=C(Oc1ccc([N+](=O)[O-])cc1)N1CCC(C(O)(c2ccc3c(c2)OCO3)c2ccc3c(c2)OCO3)CC1,-,6619,"falling, partial curve"

Repeated from the top, 2 entries:

| SMILES | tested on / at | fitted potency (nM) | curve |
|---|---|---|---|
| `CN1CCCC(n2nc(Cc3ccc(Cl)cc3)c3ccccc3c2=O)CC1` (configuration not stated) | active = Z-AUC below -0.8 in all three lines | 4176 | falling, partial curve |
| `COc1cc2c(NC3CCN(C(C)C)CC3)nc(C3CCCCC3)nc2cc1OCCCN1CCCC1` | active = Z-AUC below -0.8 in all three lines | 23484 | falling, partial curve |